Our source for the binding signal values is article PMC5996148.

Among the test systems are TM4SF19 (human); TMEM103 (human); TMEM138 (human); TMEM139 (human); TMEM149 (human); TMEM159 (human); TMEM17 (human); TMEM182 (human); TMEM185A (human); TMEM19 (human); TMEM25 (human); TMEM41A (human); TMEM98 (human); TNFAIP8 (human); TNFSF15 (human); TNNC1 (human); TNS1 (human); TPM1 (human).
What all share (assay): protein microarray (ProtoArray v5.0), streptavidin-Alexa Fluor 647
Details in all cases: 3'-biotin; 20 mM Tris (pH 7.5), 5 mM MgCl2, 100 mM KCl, 0.1% Tween-20, A/T-rich and random oligonucleotide blockers; temperature not stated; high values mean tight binding

For test [1], the system named is TOM1-like protein 2 (human).
Another test addresses T1, TP53I3 (UniProt Q53FA7).
T1 sequence: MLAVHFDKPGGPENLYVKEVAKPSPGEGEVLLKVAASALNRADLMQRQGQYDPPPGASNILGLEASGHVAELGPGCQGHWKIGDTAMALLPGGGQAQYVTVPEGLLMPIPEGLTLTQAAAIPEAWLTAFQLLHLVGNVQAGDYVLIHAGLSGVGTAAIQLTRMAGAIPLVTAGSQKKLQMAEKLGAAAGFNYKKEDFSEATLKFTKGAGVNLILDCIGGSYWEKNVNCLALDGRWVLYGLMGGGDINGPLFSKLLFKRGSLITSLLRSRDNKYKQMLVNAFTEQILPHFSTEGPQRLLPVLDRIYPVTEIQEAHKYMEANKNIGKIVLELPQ

The list shows a part of the results. For some assays here: Construct or isoform of the protein are uncertain.

“GGGGACAGGGGTATGGGGAGGGG [G4-3 biotinylated (CtG)]”: the binding signal was -0.319 z-score with TM4SF19 (human); -0.321 z-score in the test with TMEM103 (human); -0.327 z-score in the test with TMEM138 (human); -0.301 z-score with TMEM139 (human); -0.323 z-score with TMEM149 (human); -0.332 z-score in the test on TMEM159 (human). For the same sequence, the binding signal is -0.321 z-score in the test with TMEM17 (human); -0.327 z-score in the test with TMEM182 (human); -0.319 z-score in the test with TMEM185A (human); -0.334 z-score in the test with TMEM19 (human); -0.336 z-score in the test with TMEM25 (human); -0.316 z-score with TMEM41A (human). Moreover, the binding signal is -0.318 z-score with TMEM98 (human); -0.329 z-score in the test on TNFAIP8 (human); -0.322 z-score with TNFSF15 (human); -0.306 z-score in the test on TNNC1 (human); -0.298 z-score in the test with TNS1 (human); -0.343 z-score in [1]. The binding signal in the test with TP53I3 is 3.36 z-score; in the test on TPM1 (human), -0.316 z-score.
